Measured data: PubChem BioAssay AID652272 (Drosophila RNAi Screening Center, 2013)
Aim: 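Genome-wide knock-down search for components of Hedgehog signalling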 (primary screen). Cells: Drosophila clone 8 (Cl8) cells. Reagents: long dsRNA against Drosophila genes. Detection: 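Plate reader light from a firefly reporter under a ptc promoter fragment that responds to Hedgehog, with Renilla light as transfection reference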. Scale: firefly Hh reporter signal: higher = more ptc reporter light; Renilla reference signal: higher = more Renilla control light. Call rule: 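Called a hit if the two-replicate mean z-score lies below -2 or above +3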. Meaning of the calls: active = hit: reporter lowered or raised; inactive = not a hit.
The deposit covers about 21,000 reagents; this is a random part of those with a known target gene and a result. Over the whole deposit, 503 (2.4%) got an active call. 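Raw plate light values, not normalised; calls rest on replicate z-scores that were not deposited; hits include reporter decreases as well as increases.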 A number with no mark means an inactive call. A plus sign joins genes that one reagent is predicted to hit. Not stated in the record: the amount of reagent, the time to read-out.

target,DRSC id,"firefly Hh reporter signal, replicate 1","firefly Hh reporter signal, replicate 2","firefly Hh reporter signal, replicate 3","Renilla reference signal, replicate 1","Renilla reference signal, replicate 2"
tty (tweety),DRSC20588,1.38e5,1.23e5,,3339,3162
Psf2 (Partner of Sld Five 2),DRSC00516,89660,58235,,653,5251
Shawn + Tyler,DRSC19564,1.08e5,1.13e5,,2088,3048
Shawn + Tyler,DRSC19565,89088,2.63e5,,2948,10800
CG14589,DRSC04866,88774,62688,,1665,4717
CG33096,DRSC14440,1.06e5,69349,,4272,2412
CG5500,DRSC15820,96739,1.06e5,,3730,2649
CG3376,DRSC04362,1.17e5,89208,,3440,3488
TwdlV (TweedleV),DRSC12226,1.28e5,1.45e5,,4429,7512
fz2 (frizzled 2),DRSC09595,2.37e5,,,4419,
fz2 (frizzled 2),DRSC10087,1.20e5,5.65e5,76608,4836,33896
fz2 (frizzled 2),DRSC11349,67275,95755,,2231,2637
L2HGDH (L-2-hydroxyglutarate dehydrogenase),DRSC02082,97073,54904,,3866,2150
Rbcn-3B (Rabconnectin-3B),DRSC18574,98353,1.64e5,,4128,6006
asRNA:CR43299 + CG8119,DRSC20083,72285,1.63e5,,2827,6632
4E-T (eIF4E-Transporter),DRSC17201,81680,65072,,1696,2688
4E-T (eIF4E-Transporter),DRSC17208,70487,1.90e5,,2121,8209
CG42369,DRSC03244,80765,47637,,1272,4988
CG5151,DRSC10487,59178,,,2295,1974
CG7065,DRSC18420,1.49e5,82445,,2995,1862
CG42500,DRSC14822,93846,1.13e5,,3676,3382
Mrm2 (Mitochondrial rRNA methyltransferase 2),DRSC14310,5.90e5,1.00e5,,28480,2874
CG9672,DRSC20201,88375,1.06e5,,1782,2597
CG9686,DRSC18439,99746,2.91e5,,2410,7804
cno (canoe),DRSC12054,1.55e5,,,3163,
cno (canoe),DRSC12374,52374,42864,,2384,1691
sw (short wing),DRSC20388,8.58e5,3.88e5,,48295,8061
inaF-A,DRSC19660,45936,1.83e5,,1078,7280
cDIP (Common Dpr-interacting protein),DRSC14267,84293,67270,,3190,2658
CtsL3 (Cathepsin L3),DRSC12171,1.59e5,96723,,5513,3669
CG4631,DRSC02766,2.16e5,4.49e5,67202,5081,23992
CG7342,DRSC16230,98720,78944,,4283,3223
CG33181,DRSC17971,71977,2.05e5,,2928,8144
fan (farinelli),DRSC10930,46930,67106,,5219,5008
CG42372 + CG30100,DRSC05602,1.72e5,2.13e5,,4853,9712
CG4133,DRSC00639,48427,57779,,1585,1577
meep,DRSC07948,1.47e5,2.21e5,,3836,7872
Cad96Ca (Cadherin 96Ca),DRSC14220,4.86e5,79623,,23368,5699
Cad96Ca (Cadherin 96Ca),DRSC16693,5.79e5,96023,,28551,7376
Gr23a (Gustatory receptor 23a),DRSC00410,1.14e5,77424,,2935,1824
CG13912,DRSC08381,50421,49553,,1830,3651
CG14689,DRSC14912,64130,1.13e5,,1930,3355
RpS9 (Ribosomal protein S9),DRSC11273,44933 (active),26981,,3581,2672
Ranbp16,DRSC20160,84497,2.23e5,,1730,9740
CG32437,DRSC11760,1.69e5,1.45e5,,5873,4144
reb (rebuf),DRSC06308,82626,61945,,2068,4699
CG10352,DRSC19353,62641,2.42e5,,1735,8657
Pvf1 (PDGF- and VEGF-related factor 1),DRSC20024,1.45e5,1.12e5,,3351,2776
"Pp1-Y1 (Protein phosphatase 1, Y-linked 1)",DRSC20896,5.21e5,3.47e5,,23937,6721
RpS4 (Ribosomal protein S4),DRSC11272,32232 (active),9133,24583,2848,2890
CG3588,DRSC18473,1.03e5,2.67e5,,4028,8621
CG7824,DRSC16321,83136,1.31e5,,2313,6113
Cpr72Ea (Cuticular protein 72Ea),DRSC10451,1.15e5,63811,,4706,2533
CG13748,DRSC06419,76016,37430,,1661,3224
CG8180,DRSC07092,97030,86728,,5067,3600
CG8180,DRSC07093,91763,49133,,1930,2588
CG2875,DRSC18231,1.51e5,1.05e5,,3680,3937

Copied from above, 9 entries:
target,DRSC id,"firefly Hh reporter signal, replicate 1","firefly Hh reporter signal, replicate 2","firefly Hh reporter signal, replicate 3","Renilla reference signal, replicate 1","Renilla reference signal, replicate 2"
Cad96Ca (Cadherin 96Ca),DRSC16693,5.79e5,96023,,28551,7376
Gr23a (Gustatory receptor 23a),DRSC00410,1.14e5,77424,,2935,1824
CG13912,DRSC08381,50421,49553,,1830,3651
CG14689,DRSC14912,64130,1.13e5,,1930,3355
RpS9 (Ribosomal protein S9),DRSC11273,44933 (active),26981,,3581,2672
Ranbp16,DRSC20160,84497,2.23e5,,1730,9740
CG32437,DRSC11760,1.69e5,1.45e5,,5873,4144
reb (rebuf),DRSC06308,82626,61945,,2068,4699
CG10352,DRSC19353,62641,2.42e5,,1735,8657
